Data from US20040077029A1.
These are yes or no findings as the source states them, for the method shown. Binding calls can cover weak binding; strength is not graded here.

Target: HCCR-2 protooncogene protein product (human)
Assay: yeast two-hybrid as stated; no HCCR-2 experiment described

- binding: binds
B1: KG-19 protein (protein, not shown: large carriers)
chain: MFVETLWKVWTELLDVLGLDVSNLSQYFSPASVSSSPARALLLVGVVLLAYWFLSLTLGFTFSVLHVVFGRFFWIVRVVLFSMSCVYILHKYEGEPENAVLPLCFVVAVYFMTGPMGFYWRSSPSGPSNPSNPSVEEKLEHLEKQVRLLNIRLNRVLESLDRSKDK
